Measurements: the supplement of paper PMC7858590
± gives the standard deviation of the averaged measurements. Over roughly 3,800 compounds, “cell shape (eccentricity) Z-score vs DMSO control” has its median near 1.1; the lowest 2% begin near -4.7. The list shows a part of the results.

Test system: human monocyte-derived macrophages (M0)
Assay: cell shape (eccentricity) Z-score vs DMSO control; higher = more elongated, M2-like morphology
Conditions: 20 µM; 24 h; macrophage state: M0 (M-CSF)

SMILES	cell shape (Z-score)
Cn1c(=O)/c(=C/c2ccccc2)n(C)c(=O)/c1=C/c1ccccc1	-1.76
CC(C)NCC(O)COc1cccc2ccccc12 (centres undefined)	0.545
CN(C)CCC[C@@]1(c2ccc(F)cc2)OCc2cc(C#N)ccc21	3.94
Clc1ccc2c(c1)N=C(N1CCNCC1)c1ccccc1N2	-1.83
O=C(CCc1ccc(O)c(O)c1)C[C@H](CCc1ccc(O)c(O)c1)O[C@@H]1OC[C@@H](O)[C@H](O)[C@H]1O	1.69
CC(=O)OCC(=O)[C@@]1(OC(C)=O)[C@@H](C)CC2C3C[C@H](F)C4=CC(=O)C=C[C@]4(C)[C@@]3(F)[C@@H](O)C[C@@]21C (some centres undefined)	-2.73
COc1cc(OC)c2c(OC)c(-c3ccc4c(c3)OCO4)c(=O)oc2c1	3.95
COc1ccccc1[C@@H]1C2=C(CC(C)(C)CC2=O)Nc2n[nH]c(C(F)(F)F)c21	-4.48
Sc1nc2ccccc2s1	2.85
C/C(=C\CC[C@@H](C)[C@H]1CC(OC2OCC(O)C(O)C2O)[C@@]2(C)C3CC[C@H]4C(C)(C)[C@@H](O[C@@H]5OC(CO)C(O)C(O)C5OC5OC(CO)C(O)C(O)C5O)CC[C@@]45C[C@@]35CC(O)[C@]12C)C(=O)OC1OC(CO)C(O)C(O)C1O (some centres undefined)	1.04
CC(=O)OCC(=O)[C@@]12OC3(CCCC3)O[C@@H]1CC1C3CCC4=CC(=O)C=C[C@]4(C)[C@@]3(F)[C@@H](O)C[C@@]12C (some centres undefined)	-2.37
C=C1CC[C@@H]2[C@](C)(CO[C@@H]3O[C@H](CO)[C@@H](O)[C@H](O)[C@H]3O)CCC[C@@]2(C)[C@@H]1CCC1=CCOC1=O	5.17
COc1cc(C(C)=O)cc(OC)c1O	2.81
CC(=O)c1ccc(O)c(C(N)=O)c1	1.25
CCC(C)SSc1ncc[nH]1 (centres undefined)	3.69
CCCCOc1cc(C(=O)NCCN(CC)CC)c2ccccc2n1	0.217
O=C1CCc2cc(OCCCCc3nnnn3C3CCCCC3)ccc2N1	3.6
COc1ccc(C2=NC(c3ccc(Cl)cc3)C(c3ccc(Cl)cc3)N2C(=O)N2CCNC(=O)C2)c(OC(C)C)c1 (centres undefined)	0.661
CN(C)CCC=C1c2ccccc2COc2ccccc21	1.65
CC1=CC(=O)[C@H]2C(C)(C)CCC[C@]2(C)[C@@]1(O)CO	2.33

SMILES	cell shape (Z-score)
O=C(OCc1ccccc1)c1ccccc1	3.02
CC(=O)Oc1ccc(C(c2ccc(OC(C)=O)cc2)c2ccccn2)cc1	4.24
FC(F)(F)c1cccc(-c2noc(-c3cc(-c4ccccc4)c(C(F)(F)F)s3)n2)c1	1.47
C=C1C(=O)O[C@@H]2C[C@H](C)[C@@]3(O)C[C@H](O)[C@@](C)(C[C@@H](OC(=O)C(C)C)[C@@H]12)O3	0.141
CN(C)CCOC(=O)COc1ccc(Cl)cc1	1.82
COC(=O)N/N=C/c1c[n+]([O-])c2ccccc2[n+]1[O-]	4.22
O=C1CC(c2ccc(O)cc2)Oc2ccccc21 (centres undefined)	2.6
CCN(CC)S(=O)(=O)c1ccc(C(=O)O)cc1	1.1
COc1ccc2c(c1)OCC(Cc1ccc(O)c(OC)c1)C2=O (centres undefined)	1.32
Nc1c(Br)cc(Br)cc1CNC1CCC(O)CC1 (centres undefined)	0.725
CCCC(=O)Nc1ncnc2c1ncn2C1OC2COP(=O)(O)OC2C1OC(=O)CCC (centres undefined)	8.07
CCOC(=O)c1c(C)n(C)c2ccc(O)cc12	1.3
CC/C(=C(/CC)c1ccc(O)cc1)c1ccc(O)cc1	1.77
CN(CCOc1ccc(CC2SC(=O)NC2=O)cc1)c1ccccn1 (centres undefined)	0.262
CN1CCN(C2=Nc3ccccc3Oc3ccc(Cl)cc32)CC1	1.46
COc1cc(/C=C/C(=O)O[C@@H]2C[C@@](O)(C(=O)O)C[C@@H](O)[C@@H]2O)ccc1O	1.6
COc1ccc2c(=O)cc(-c3ccccc3)oc2c1	1.88
COc1cc(/C=C/c2cc(O)cc(O)c2)ccc1O[C@@H]1O[C@H](CO)[C@@H](O)[C@H](O)[C@H]1O	3.67
Cc1cccc(C)c1NC(=O)CN1CCCCCC1	0.786
CC1(C)C(=O)N=C2c3ccccc3C(=O)C(=O)C21 (centres undefined)	-1.97

SMILES	cell shape (Z-score)
CN1N=C(C(N)=O)CCC1=O	-1.26
COc1c(-c2coc3cc4c(cc3c2=O)CC(OC(C)=O)C(C)(C)O4)ccc2c1C=CC(C)(C)O2 (centres undefined)	3.18
CN1CCN(CC/C=C2\c3ccccc3Sc3ccc(S(=O)(=O)N(C)C)cc32)CC1	-2.78
COc1cc2c(cc1-c1coc3c4c(ccc3c1=O)OC(C)(C)C=C4)OCO2	-5.49
CSc1nc(NC2CCCC2)c([N+](=O)[O-])c(NC2CCCC2)n1	-0.455
CCOC(=O)/C(=N/O)c1csc(N)n1	0.604
CCCCC/C=C\C/C=C\C(O)CCCCCCC(=O)O (centres undefined)	-0.823 ± 3.3
CC1(C)C(=O)[C@@H]2C[C@@]3(O)C4=CC(=O)O[C@@H](c5ccoc5)[C@]4(C)CCC3[C@@](C)(C2=O)[C@H]1CC(=O)O (some centres undefined)	2.12
C=C(C(=O)O)C(O)CCC1(C)C2CC3C(C2)C31C (centres undefined)	2.85
COc1cc2c(cc1OC)C(C(C(=O)N(CCc1ccc(OC)c(OC)c1OC)CCc1ccc(OC)c(OC)c1OC)c1ccccc1)=NCC2 (centres undefined)	-1.31
COCCCOc1cc(C[C@@H](C[C@H](N)[C@@H](O)C[C@H](C(=O)NCC(C)(C)C(N)=O)C(C)C)C(C)C)ccc1OC	-1.01
COc1ccc(C2Sc3ccccc3N(CCN(C)C)C(=O)C2OC(C)=O)cc1 (centres undefined)	2.58
C[C@@H]1O[C@@H](Oc2cc(O)c3c(=O)c(O[C@@H]4O[C@@H](C)[C@H](O)[C@@H](O)[C@H]4O)c(-c4ccc(O)cc4)oc3c2)[C@H](O)[C@H](O)[C@H]1O	-0.711
CC(C)c1ccc2c(c1)CC[C@H]1[C@](C)(CN)CCC[C@]21C	-0.252
CC1(C)C2CC[C@]3(C)C(C(=O)C=C4[C@@H]5C[C@@](C)(C(=O)O)CC[C@]5(C)CC[C@]43C)[C@@]2(C)CC[C@@H]1OC(=O)CCC(=O)O (some centres undefined)	2.95
Oc1cc(O)c2c(c1)O[C@H](c1ccc(O)c(O)c1)[C@@H](O)C2	-0.232
CC1CCC2C(C)(C)[C@@H](O)CC[C@]2(C)C12Cc1c(O)cc3c(c1O2)CN(C(CCC(=O)O)C(=O)O)C3=O (some centres undefined)	0.909
COc1cc(O[C@@H]2O[C@H](CO)[C@@H](O)[C@H](O)[C@H]2O)c2c(=O)cc(-c3ccccc3)oc2c1OC	1.17
NS(=O)(=O)c1cccc2c1c([N+](=O)[O-])cc1nc(O)c(O)nc12	1.18
